According to publication PMC7217929:
No constants are given. Whether binding was seen depends on the method and setting. In cells and extracts the contact can be indirect. Some results given as binding are weak or reduced against the parent protein; the word gives no strength.

Chains of the proteins cited; added tags and fusions are not shown.
UniProt Q8TD17: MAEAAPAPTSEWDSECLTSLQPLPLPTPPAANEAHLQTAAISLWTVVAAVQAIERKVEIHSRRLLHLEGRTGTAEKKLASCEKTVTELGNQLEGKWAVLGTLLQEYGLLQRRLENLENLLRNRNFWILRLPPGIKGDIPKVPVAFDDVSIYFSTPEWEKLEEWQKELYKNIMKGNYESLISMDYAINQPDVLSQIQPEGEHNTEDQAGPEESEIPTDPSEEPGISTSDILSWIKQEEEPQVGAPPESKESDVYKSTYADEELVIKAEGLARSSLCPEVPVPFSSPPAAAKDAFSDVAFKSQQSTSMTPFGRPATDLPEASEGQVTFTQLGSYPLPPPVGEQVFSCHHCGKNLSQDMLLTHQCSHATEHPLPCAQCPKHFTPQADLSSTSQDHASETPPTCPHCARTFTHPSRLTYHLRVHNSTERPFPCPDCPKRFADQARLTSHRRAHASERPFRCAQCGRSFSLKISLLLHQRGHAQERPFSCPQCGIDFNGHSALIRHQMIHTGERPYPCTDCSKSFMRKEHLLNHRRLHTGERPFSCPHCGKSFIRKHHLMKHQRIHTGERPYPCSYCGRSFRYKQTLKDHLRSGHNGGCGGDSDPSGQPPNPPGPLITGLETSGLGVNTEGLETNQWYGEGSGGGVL
UniProt P84022: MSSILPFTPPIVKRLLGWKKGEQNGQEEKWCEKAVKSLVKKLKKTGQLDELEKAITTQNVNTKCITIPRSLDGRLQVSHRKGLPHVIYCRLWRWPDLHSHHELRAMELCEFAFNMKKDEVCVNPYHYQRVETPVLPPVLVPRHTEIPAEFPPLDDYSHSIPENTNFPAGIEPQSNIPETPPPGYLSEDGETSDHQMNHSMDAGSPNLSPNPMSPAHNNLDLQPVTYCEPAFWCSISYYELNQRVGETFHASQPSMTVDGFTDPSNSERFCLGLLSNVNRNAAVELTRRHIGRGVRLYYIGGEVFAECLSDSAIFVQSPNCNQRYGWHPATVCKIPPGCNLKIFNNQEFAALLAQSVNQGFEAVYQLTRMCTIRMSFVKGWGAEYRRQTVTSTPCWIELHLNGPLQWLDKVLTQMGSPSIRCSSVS

Molecular target: Avi-Tag-ZNF398 (human) (UniProt Q8TD17)
Experiment: co-IP; nuclear lysates of H9 expressing Avi-Tag-ZNF398, treated with 25 ng/ml Activin A for 1 h; nuclei treated with micrococcal nuclease at 30 °C for 10 min; IP buffer 50 mM Tris-HCl pH 8.0, 100 mM NaCl; antibodies against SMAD3, Avi-Tag-ZNF398 or IgG overnight at 4 °C, Protein G magnetic beads; blots for endogenous SMAD3 and Avi-Tag-ZNF398

SMAD3 (from UniProt P84022 1-425)
binding: binds
